Experimental data: the supplement of paper PMC12819154, “High-throughput peptide-centric local stability assay extends protein–ligand identification to membrane proteins, tissues and bacteria” (Nature Structural & Molecular Biology, 2025)
The other results are listed elsewhere or left out. Small differences around the control level are noise.

The chains behind the UniProt entries cited, without tags or fusion partners. Where a name states a change or a piece, a line headed by the entry shows the natural chain unless it says otherwise.
UniProt O35143: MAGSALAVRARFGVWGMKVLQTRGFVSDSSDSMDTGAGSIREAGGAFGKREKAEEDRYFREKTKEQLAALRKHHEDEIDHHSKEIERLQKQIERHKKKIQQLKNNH
UniProt O70172: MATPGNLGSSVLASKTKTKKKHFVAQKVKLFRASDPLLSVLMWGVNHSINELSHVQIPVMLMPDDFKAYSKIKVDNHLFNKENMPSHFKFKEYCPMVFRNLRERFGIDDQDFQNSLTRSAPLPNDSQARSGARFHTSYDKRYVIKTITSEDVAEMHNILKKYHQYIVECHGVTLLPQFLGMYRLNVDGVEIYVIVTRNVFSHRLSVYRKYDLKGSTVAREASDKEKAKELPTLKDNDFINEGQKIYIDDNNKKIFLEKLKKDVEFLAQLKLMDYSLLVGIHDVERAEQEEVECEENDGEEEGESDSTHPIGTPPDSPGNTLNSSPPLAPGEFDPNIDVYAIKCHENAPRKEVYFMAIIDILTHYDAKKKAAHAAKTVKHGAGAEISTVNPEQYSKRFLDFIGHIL
UniProt O09117: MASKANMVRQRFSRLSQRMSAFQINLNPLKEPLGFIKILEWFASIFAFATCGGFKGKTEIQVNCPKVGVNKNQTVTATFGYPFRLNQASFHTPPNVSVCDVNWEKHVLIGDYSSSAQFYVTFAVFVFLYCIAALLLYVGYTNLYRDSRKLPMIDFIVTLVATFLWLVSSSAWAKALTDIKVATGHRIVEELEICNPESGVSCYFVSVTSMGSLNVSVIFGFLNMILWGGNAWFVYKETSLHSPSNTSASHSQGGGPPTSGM
UniProt O35465: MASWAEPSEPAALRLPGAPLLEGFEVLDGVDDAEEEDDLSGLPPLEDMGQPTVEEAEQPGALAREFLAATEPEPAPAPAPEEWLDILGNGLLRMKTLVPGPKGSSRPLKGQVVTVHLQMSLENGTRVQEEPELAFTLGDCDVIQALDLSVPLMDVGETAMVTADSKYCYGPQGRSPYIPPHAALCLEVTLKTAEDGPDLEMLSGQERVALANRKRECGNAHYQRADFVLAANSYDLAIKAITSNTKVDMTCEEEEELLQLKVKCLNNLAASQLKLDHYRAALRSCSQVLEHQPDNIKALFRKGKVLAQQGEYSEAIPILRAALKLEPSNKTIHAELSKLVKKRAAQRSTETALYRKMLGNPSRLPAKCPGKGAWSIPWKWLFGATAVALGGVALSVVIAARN
UniProt O54782: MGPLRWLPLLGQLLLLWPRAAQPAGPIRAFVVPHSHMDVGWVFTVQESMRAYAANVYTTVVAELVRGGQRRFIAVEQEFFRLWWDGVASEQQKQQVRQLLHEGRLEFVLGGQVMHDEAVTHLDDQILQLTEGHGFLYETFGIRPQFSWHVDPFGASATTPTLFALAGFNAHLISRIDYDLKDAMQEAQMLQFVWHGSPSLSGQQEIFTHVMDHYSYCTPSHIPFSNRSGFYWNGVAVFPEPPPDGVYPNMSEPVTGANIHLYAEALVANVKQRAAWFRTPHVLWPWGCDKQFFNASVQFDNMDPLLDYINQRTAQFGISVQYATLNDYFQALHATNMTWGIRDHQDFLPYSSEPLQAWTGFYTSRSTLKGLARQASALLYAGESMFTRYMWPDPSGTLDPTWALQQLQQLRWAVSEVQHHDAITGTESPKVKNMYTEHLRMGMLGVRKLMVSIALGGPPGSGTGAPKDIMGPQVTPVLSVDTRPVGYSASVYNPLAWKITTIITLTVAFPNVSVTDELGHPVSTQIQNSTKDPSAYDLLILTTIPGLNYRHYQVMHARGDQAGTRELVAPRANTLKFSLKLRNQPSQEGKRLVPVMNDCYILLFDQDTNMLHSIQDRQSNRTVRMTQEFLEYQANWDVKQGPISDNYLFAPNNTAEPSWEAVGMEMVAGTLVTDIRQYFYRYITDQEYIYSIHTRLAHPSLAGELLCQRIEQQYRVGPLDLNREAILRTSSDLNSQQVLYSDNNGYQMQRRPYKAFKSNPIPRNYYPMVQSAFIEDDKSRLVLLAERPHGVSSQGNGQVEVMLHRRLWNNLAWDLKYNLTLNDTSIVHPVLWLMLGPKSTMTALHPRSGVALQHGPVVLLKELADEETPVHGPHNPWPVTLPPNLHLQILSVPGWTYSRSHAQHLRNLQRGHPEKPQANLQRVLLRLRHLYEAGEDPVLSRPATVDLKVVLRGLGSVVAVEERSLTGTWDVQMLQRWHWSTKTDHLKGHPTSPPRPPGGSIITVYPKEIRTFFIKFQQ
UniProt P01592: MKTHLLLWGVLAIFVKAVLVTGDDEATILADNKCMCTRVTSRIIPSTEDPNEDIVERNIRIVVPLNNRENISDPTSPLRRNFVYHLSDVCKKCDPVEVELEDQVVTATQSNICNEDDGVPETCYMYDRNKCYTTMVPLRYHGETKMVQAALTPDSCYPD
UniProt O55111: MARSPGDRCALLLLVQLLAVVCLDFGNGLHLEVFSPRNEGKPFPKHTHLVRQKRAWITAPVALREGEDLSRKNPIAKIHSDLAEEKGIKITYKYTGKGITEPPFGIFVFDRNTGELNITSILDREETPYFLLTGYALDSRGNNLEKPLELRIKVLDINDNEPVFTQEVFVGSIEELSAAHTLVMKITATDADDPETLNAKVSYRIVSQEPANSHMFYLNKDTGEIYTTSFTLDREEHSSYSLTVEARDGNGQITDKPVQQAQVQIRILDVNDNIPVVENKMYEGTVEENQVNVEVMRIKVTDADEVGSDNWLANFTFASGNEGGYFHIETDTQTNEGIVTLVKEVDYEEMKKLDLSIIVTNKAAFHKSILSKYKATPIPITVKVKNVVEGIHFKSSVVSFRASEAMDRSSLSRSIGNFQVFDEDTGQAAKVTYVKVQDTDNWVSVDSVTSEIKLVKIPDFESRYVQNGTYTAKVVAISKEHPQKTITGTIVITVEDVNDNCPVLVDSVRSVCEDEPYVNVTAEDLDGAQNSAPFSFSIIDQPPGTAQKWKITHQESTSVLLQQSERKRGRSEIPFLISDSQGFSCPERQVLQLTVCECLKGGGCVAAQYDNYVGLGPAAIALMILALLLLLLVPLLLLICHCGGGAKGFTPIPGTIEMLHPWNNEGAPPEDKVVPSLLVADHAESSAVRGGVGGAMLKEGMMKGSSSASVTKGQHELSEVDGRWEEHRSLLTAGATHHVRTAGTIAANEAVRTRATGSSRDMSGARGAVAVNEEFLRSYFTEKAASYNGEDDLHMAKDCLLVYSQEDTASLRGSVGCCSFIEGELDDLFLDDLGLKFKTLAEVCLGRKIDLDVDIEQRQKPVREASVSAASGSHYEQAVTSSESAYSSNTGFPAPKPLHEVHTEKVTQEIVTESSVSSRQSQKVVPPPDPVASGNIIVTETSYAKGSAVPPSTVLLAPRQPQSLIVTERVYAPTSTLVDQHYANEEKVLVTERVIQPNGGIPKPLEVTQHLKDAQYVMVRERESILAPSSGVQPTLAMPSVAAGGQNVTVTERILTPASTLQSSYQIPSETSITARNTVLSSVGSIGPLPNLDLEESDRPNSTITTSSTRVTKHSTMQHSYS
UniProt O09173: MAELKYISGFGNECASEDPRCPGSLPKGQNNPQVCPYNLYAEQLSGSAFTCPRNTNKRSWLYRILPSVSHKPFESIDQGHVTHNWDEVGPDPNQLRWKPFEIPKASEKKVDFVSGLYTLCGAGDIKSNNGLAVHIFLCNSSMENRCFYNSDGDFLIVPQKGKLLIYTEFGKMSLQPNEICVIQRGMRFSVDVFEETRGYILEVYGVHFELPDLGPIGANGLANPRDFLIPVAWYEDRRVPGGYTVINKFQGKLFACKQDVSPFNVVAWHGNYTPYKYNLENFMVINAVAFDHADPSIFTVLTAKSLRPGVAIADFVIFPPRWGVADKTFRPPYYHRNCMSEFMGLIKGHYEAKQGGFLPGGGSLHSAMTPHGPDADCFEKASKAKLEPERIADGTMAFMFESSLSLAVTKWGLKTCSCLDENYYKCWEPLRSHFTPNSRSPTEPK
UniProt O35445: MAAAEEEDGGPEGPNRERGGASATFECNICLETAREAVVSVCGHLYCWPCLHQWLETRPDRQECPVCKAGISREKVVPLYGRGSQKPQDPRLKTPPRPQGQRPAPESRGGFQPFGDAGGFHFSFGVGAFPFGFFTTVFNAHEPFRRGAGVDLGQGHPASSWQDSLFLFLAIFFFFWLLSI
UniProt P01804, whole entry: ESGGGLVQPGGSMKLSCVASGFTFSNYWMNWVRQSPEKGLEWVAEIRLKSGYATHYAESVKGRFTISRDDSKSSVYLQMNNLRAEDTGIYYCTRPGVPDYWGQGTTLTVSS
UniProt O88967: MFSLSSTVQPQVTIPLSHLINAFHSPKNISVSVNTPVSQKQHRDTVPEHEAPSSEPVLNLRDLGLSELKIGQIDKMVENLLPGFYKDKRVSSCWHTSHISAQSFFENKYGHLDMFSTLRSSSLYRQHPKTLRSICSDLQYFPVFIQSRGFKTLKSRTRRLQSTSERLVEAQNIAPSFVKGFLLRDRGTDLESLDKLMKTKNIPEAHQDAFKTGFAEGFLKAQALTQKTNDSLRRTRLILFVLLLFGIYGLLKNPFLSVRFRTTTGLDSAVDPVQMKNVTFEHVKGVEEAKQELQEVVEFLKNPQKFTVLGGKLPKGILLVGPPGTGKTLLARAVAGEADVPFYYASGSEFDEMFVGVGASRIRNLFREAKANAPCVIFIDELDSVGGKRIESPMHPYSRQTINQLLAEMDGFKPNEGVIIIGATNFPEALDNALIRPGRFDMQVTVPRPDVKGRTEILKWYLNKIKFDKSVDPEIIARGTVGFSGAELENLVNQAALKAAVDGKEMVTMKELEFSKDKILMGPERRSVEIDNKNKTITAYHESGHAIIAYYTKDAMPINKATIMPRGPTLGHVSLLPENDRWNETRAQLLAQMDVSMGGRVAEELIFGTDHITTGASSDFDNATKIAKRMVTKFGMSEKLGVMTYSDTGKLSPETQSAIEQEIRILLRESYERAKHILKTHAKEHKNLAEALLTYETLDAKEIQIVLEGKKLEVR
UniProt O09044: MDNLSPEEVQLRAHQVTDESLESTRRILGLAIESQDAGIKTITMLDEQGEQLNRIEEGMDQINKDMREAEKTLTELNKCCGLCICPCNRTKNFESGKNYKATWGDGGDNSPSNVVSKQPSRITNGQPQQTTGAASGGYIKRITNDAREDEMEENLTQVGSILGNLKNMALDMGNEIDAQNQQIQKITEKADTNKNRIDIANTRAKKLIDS
UniProt O88803: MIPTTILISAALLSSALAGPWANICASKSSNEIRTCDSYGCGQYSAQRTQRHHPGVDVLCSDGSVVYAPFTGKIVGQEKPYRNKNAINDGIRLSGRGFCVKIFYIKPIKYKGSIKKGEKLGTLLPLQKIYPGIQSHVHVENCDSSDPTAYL
UniProt O08600: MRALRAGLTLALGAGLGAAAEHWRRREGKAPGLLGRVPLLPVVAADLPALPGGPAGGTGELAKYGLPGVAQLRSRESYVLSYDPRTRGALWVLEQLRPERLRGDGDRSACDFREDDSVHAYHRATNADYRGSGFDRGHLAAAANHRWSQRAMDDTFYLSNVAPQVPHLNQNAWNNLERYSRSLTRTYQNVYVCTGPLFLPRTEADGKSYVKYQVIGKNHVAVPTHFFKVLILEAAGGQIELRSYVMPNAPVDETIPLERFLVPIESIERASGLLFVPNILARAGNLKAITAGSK
UniProt O09172: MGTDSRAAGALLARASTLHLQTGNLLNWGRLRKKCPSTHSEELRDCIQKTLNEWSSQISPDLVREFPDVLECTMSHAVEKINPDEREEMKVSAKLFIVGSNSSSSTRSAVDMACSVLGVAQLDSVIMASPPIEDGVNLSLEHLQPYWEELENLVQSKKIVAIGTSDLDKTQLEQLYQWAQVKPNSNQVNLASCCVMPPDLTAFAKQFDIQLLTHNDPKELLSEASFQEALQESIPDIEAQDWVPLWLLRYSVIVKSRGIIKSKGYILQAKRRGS
UniProt O89050, whole entry: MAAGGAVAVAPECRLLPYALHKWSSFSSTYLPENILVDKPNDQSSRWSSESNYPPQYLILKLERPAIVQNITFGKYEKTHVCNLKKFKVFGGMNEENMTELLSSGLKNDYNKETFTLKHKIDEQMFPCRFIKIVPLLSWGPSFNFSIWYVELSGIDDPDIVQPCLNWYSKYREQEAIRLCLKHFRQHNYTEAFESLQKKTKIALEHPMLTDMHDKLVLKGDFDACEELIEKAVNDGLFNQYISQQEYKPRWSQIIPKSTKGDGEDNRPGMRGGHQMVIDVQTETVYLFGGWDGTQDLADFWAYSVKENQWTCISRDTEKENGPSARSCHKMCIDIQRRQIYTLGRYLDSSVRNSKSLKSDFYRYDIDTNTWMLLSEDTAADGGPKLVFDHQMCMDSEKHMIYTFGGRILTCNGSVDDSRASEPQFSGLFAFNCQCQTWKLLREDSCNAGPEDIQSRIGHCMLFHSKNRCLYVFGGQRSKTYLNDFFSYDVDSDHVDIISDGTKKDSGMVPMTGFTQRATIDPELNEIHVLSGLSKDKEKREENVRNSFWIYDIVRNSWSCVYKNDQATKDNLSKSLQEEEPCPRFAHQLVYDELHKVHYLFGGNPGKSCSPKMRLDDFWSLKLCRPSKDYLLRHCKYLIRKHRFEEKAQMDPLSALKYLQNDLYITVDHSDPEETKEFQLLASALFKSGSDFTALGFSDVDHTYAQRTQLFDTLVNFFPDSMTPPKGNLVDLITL

compound: CN[C@@H]1C[C@H]2O[C@@](C)([C@@H]1OC)n1c3ccccc3c3c4c(c5c6ccccc6n2c5c31)C(=O)NC4 [staurosporine]; test: log2 fold change of pooled soluble protein (PISA), ligand vs vehicle (log2 ratio); higher = more thermally stabilized; details: ligand concentration: 20 uM; assay format: PISA pool 52.9/55.5/58.6 C

Row | Target | log2 fold change of pooled soluble protein
1 | UniProt O35143 | -0.148
2 | UniProt O08914 | -0.0516
3 | UniProt O08583 | -0.0459
4 | UniProt O70172 | -0.231
5 | UniProt O09117 | -0.0724
6 | UniProt O08705 | 0.201
7 | UniProt O35465 | -0.224
8 | UniProt O54782 | -0.24
9 | UniProt P01592 | 0.0127
10 | UniProt O35691 | 0.00992
11 | UniProt O55111 | -0.0388
12 | UniProt O88441 | 0.0218
13 | UniProt O09173 | 0.0271
14 | UniProt O54786 | -0.0316
15 | UniProt O89090 | -0.239
16 | UniProt P01029 | -0.00278
17 | UniProt O35309 | 0.0339
18 | UniProt O88544 | 0.0529

Row | Target | log2 fold change of pooled soluble protein
19 | UniProt O35445 | -0.577
20 | UniProt O08997 | 0.135
21 | UniProt P01804 | -0.158
22 | UniProt O88876 | 0.0434
23 | O35207;Q9CPY4 | 0.0568
24 | P01863;P01865 | 0.0629
25 | UniProt O88967 | -0.106
26 | UniProt O88428 | -0.009
27 | UniProt O70309 | 0.11
28 | UniProt O54940 | 0.339
29 | UniProt O09044 | 0.0205
30 | UniProt O88803 | -0.119
31 | UniProt O08600 | -0.2
32 | UniProt O88783 | -0.171
33 | UniProt O88487 | -0.0111
34 | UniProt O70378 | -0.0736
35 | UniProt O09172 | -0.016
36 | UniProt O89050 | -0.0622

Part of the list above, reformatted:

| Row | Target | log2 fold change of pooled soluble protein |
| --- | --- | --- |
| 26 | UniProt O88428 | -0.009 |
| 27 | UniProt O70309 | 0.11 |
| 28 | UniProt O54940 | 0.339 |
